## Screening data, single-dose tests

By UniProt entry, the sequences of proteins in these tests, tags left out.
UniProt P9WFT3, whole entry: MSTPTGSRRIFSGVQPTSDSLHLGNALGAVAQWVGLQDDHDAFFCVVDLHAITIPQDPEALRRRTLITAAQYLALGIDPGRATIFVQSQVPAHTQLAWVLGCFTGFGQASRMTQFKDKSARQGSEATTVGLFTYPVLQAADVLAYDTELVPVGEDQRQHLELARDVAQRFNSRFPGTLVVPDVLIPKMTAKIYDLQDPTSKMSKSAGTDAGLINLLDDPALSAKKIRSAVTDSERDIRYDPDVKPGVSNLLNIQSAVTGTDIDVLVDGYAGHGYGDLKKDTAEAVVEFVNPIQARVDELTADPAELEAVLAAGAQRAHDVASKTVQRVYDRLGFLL

Source: ChEMBL document CHEMBL3988442, “University of Dundee, Small-Polar-MMV Screening Library” (2021).

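Enzyme assay of tryptophanyl-tRNA synthetase; the read-out is not stated. Target: Tryptophan-tRNA ligase, Mycobacterium tuberculosis (UniProt P9WFT3). Tested at 10 µM. Higher most likely means stronger inhibition; the record gives no direction and few retests gave an IC50. About 65,000 compounds were tested under these conditions; 0.098% (about 64) showed 50% or more at least once.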

Values are the deposited “Percent Effect”, in %.
How 0% and 100% were set is not recorded. Most values in the screen are low, and negative values occur.
Compounds were drawn at random from those tested, without regard to their results.

Compound,Percent Effect
Cc1cc(C(=O)NC2(c3cccc(F)c3)CCOCC2)no1,3.436%
CCS(=O)(=O)N1CCC2(CCCN(Cc3cc(OC)ccc3F)C2)C1 (centres unmarked),-4.739%
CC(c1cccc(-c2ncc(C#N)c(N)n2)c1)N(C)C (centres unmarked),3.042%
CCn1cc(NC(=O)c2cccc(CN3C[C@@H](C)O[C@@H](C)C3)c2)nn1,-2.545%
COCCN1CCOCC2(CCCN(Cc3cccc(F)c3)C2)C1 (centres unmarked),-5.473%
COC(=O)C(C)(C)NC(=O)C1CC(=O)N(C)C1 (centres unmarked),1.562%
CC(C)C(=O)Nc1ccc(C(O)Cn2nc(-c3cccs3)oc2=O)cc1 (centres unmarked),0.3621%
O=C(c1ccc(Cl)cc1)N1CCC(N2CCCOC2=O)CC1,-1.642%
CC(C)Nc1ncnc2c1CCN(Cc1nccn1C)CC2,-1.647%
c1ccc(OCC2CC3(CCN(Cc4ccncc4)CC3)CO2)nc1 (centres unmarked),3.216%
CN1C(=O)C2(CC(=O)Nc3[nH]ncc32)c2cc(F)ccc21 (centres unmarked),-0.2045%
Cc1cc(F)ccc1-n1cc(O)c(C(=O)NCC[S+](C)[O-])n1 (centres unmarked),-3.985%
O=C(NCC1CCOC1)c1ccc(OCC(F)(F)F)nc1 (centres unmarked),-0.6681%
CC(C1CCN(Cc2cccc(OC(F)F)c2)CC1)N1CCOCC1 (centres unmarked),-0.1874%
CN(C)C[C@@H]1CCC[C@@H]2CN(c3cccnc3)C[C@@H]21,-5.578%
CC[C@@H]1N(CC2CC2)CCC[C@]12CCC(=O)N2CCOC,0.9444%
CSc1nccc(N2CCC(=O)N(CC3CC3)C(C(C)C)C2)n1 (centres unmarked),-0.2174%
CCOCC(=O)N1CC[C@H]2OCC[C@@H](c3nnc(C)o3)[C@H]2C1,-5.591%
O=C(NCc1nccn1CCc1ccccc1)NCC1(O)CCC1,-2.082%
CCN1CCCn2c(nc(CNC(=O)c3ccsc3)cc2=O)C1,4.446%
O=c1ccc(-n2ccnc2)nn1CCNS(=O)(=O)c1ccc(Br)cc1,6.155%
O=C(CN1CCCC1Cn1cncn1)NC(C1CC1)C1CC1 (centres unmarked),-11.37%
CCC(=O)Nc1nnc(CCCOc2ccccc2)s1,-3.417%
O=C(C1CCC1)N1CCc2onc(Cn3cccn3)c2C1,-0.1744%
CCCSCC(=O)N1C[C@@H](NC(C)=O)[C@H](c2ccc(OC)cc2)C1,-11.87%
CN(CCCc1cnn(C)c1)C(=O)C1CCC(=O)N(C2CCCC2)C1 (centres unmarked),5.815%
C1CC(CN2CCOCC3(CCN(C4CCOCC4)C3)C2)CCO1 (centres unmarked),-1.055%
COCCNC(=O)CN1CCN(c2nc(C)cs2)C(C)C1 (centres unmarked),3.596%
CN1CCN(C(=O)c2cc3sccc3n2Cc2ccc(Cl)cc2)CC1,2.002%
CCC(CNC(=O)c1cc(OC)ccc1Br)N1CCc2ccccc2C1 (centres unmarked),-5.495%
COc1ccc(C(=O)n2nc(C)c(C)c2C)cc1,-2.377%
Cc1noc(C)c1CN1CCO[C@H]2CN(Cc3ccc(F)cc3)C[C@H]21,-7.956%
COCc1cc(NCc2ccccc2-n2cncn2)ncn1,0.05974%
COc1cccn(Cc2nnc(-c3cccc(F)c3)o2)c1=O,13.23%
COCc1cc(N2CCOC(c3ccc(Cl)c(Cl)c3)C2)ncn1 (centres unmarked),-0.3661%
O=C(C1CCOCC1)N1CCc2ncc(CN3CCCC3)n2CC1,2.346%
CC(=O)N1CCN(CCNS(=O)(=O)c2ccc(C)c(F)c2)CC1,7.309%
CCN1CCc2c(sc3c2C(=O)NC(/C=C\c2ccccc2)N3)C1 (centres unmarked),-1.642%
Cn1cnc(-c2ccc(F)cc2)c1NC(=O)CCNC(=O)C(C)(C)C,1.312%
O=C(Cn1[nH]c2ccccc2c1=O)N1CCCC(CC2CC2)(C(=O)O)C1 (centres unmarked),1.232%
CN(CCc1cn[nH]c1)C(=O)CCc1ccc(Cl)cc1,-0.4755%
CCc1ccc(CNC2(c3ccc(F)cc3)CCOCC2)o1,1.615%
COc1ccc2c(=O)n(CC3CCCN(C)C3)ccc2c1OC (centres unmarked),6.458%
CC(NC(=O)NCCCN(C)S(C)(=O)=O)c1cccnc1 (centres unmarked),-7.412%
CC(=O)N(Cc1noc(C)n1)C1CCN(Cc2c(C)noc2C)C1 (centres unmarked),-1.874%
CCOC(=O)NCC(=O)Nc1nc2ccccc2n1C(C)(C)C,8.691%
O=C(c1ccc(=O)[nH]c1)N1CCC(Oc2cccc(C(F)(F)F)c2)CC1,1.56%
Cc1cnc(C(=O)N2CCOCC2c2ccccc2)cn1 (centres unmarked),-4.752%
CCN1CC(Oc2ccc(Cl)cc2)=NC(SCC(=O)c2ccccc2)=N1,2.081%
COc1ccc(-c2ccnc3c2C(=O)CCC3)cc1,-1.583%